Data source: PubChem BioAssay AID1259295 (Sanger Institute, 2017)

- Aim: 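Kinase knockdowns that sensitise colorectal cancer cells to BYL719, cetuximab or trametinib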 (secondary deconvolution screen, four single siRNAs per gene)
- Cells: human COLO678 colorectal cancer cells
- Knock-down reagent: single siRNA against human genes
- Treatment: anchor drug BYL719 at 1 µM, cetuximab at 5 µg/ml or trametinib at 10 nM, or DMSO vehicle alone
- Measured: 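Averaged cell survival relative to control pool 2 with DMSO, plus synergy scores weighing knockdown combined with each of three drugs against either separately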
- Reading the numbers: synergy score with BYL719: higher = stronger combined killing with BYL719; synergy score with cetuximab: higher = stronger combined killing with cetuximab; synergy score with trametinib: higher = stronger combined killing with trametinib; viability, vehicle only: higher = more cells survive
- Active means: 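Hit: synergy score over 0.10 with BYL719, cetuximab or trametinib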
The deposit covers 160 reagents; this is an unselected part. In the full data, 40 (25%) were called active. 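How the synergy score is calculated is not defined; single-siRNA calls need support from other siRNAs and cell lines.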 The numbers tell different reagents against one gene apart. No viability above 1 is reported: the scale is capped. Not given: the amount of reagent, the time to read-out.

gene | reagent no. | synergy score with BYL719 | synergy score with cetuximab | synergy score with trametinib | viability, vehicle only (fraction of control) | Call
NR2F2 | 1 | -0.258 | -0.0358 | 0.0268 | 0.813 | inactive
NR2F2 | 2 | -0.0423 | -0.123 | 0.0212 | 0.803 | inactive
NR2F2 | 3 | -0.0753 | -0.0716 | 0.0357 | 0.932 | inactive
NR2F2 | 4 | -0.258 | -0.174 | -0.00567 | 0.813 | inactive
IRAK3 | 1 | -0.231 | -0.139 | -0.173 | 0.679 | inactive
IRAK3 | 2 | -0.0223 | 0.0685 | -0.0648 | 0.846 | inactive
IRAK3 | 3 | -0.238 | -0.0189 | -0.0833 | 0.835 | inactive
IRAK3 | 4 | -0.23 | -0.141 | -0.0447 | 0.844 | inactive
BRAF | 1 | 0.0911 | -0.0567 | -0.0255 | 0.934 | inactive
BRAF | 2 | 0.0747 | 0.11 | 0.0303 | 0.973 | active
BRAF | 3 | 0.0168 | -0.118 | 0.121 | 1 | active
BRAF | 4 | -0.0438 | -0.0422 | 0.0968 | 1 | inactive
PFKFB3 | 1 | -0.138 | -0.0454 | -0.0763 | 0.584 | inactive
PFKFB3 | 2 | -0.0326 | 0.0299 | 0.013 | 0.569 | inactive
PFKFB3 | 3 | -0.152 | -0.0149 | -0.0598 | 0.619 | inactive
PFKFB3 | 4 | -0.0843 | -0.00345 | 0.0401 | 0.887 | inactive
SYNCRIP | 1 | -0.0413 | 0.0359 | 0.163 | 0.865 | active
SYNCRIP | 2 | 0.0233 | 0.0941 | 0.00594 | 1 | inactive
SYNCRIP | 3 | 0.0671 | 0.042 | 0.0423 | 0.887 | inactive
SYNCRIP | 4 | -0.0481 | 0.0662 | 0.0506 | 0.993 | inactive
CDK6 | 1 | -0.13 | -0.142 | -0.0976 | 0.87 | inactive
CDK6 | 2 | -0.0905 | 0.0335 | -0.0107 | 0.539 | inactive
CDK6 | 3 | -0.171 | -0.11 | 0.0209 | 0.909 | inactive
CDK6 | 4 | -0.116 | -0.063 | 0.0899 | 0.969 | inactive
STK36 | 1 | -0.215 | -0.0934 | 0.0671 | 0.861 | inactive
STK36 | 2 | -0.206 | -0.268 | 0.00746 | 0.768 | inactive
STK36 | 3 | -0.134 | -0.0181 | -0.0517 | 0.718 | inactive
STK36 | 4 | -0.14 | -0.0577 | 0.0455 | 0.943 | inactive
PLK1 | 1 | 0.172 | 0.173 | 0.114 | 0.729 | active
PLK1 | 2 | 0.078 | 0.0593 | 0.0661 | 0.887 | inactive
PLK1 | 3 | -0.101 | -0.114 | 0.00469 | 0.56 | inactive
PLK1 | 4 | -0.228 | -0.069 | -0.0598 | 0.746 | inactive

2 entries from above, ordered by “synergy score with cetuximab”, descending:
gene | reagent no. | synergy score with BYL719 | synergy score with cetuximab | synergy score with trametinib | viability, vehicle only (fraction of control) | Call
PLK1 | 2 | 0.078 | 0.0593 | 0.0661 | 0.887 | inactive
PLK1 | 3 | -0.101 | -0.114 | 0.00469 | 0.56 | inactive
